Assay results published in US20220306688A1.
These are yes or no findings as the source states them, for the method shown. Some binding calls cover weakened binding; strength is not graded here.

Legend:
KRAS-G12V (Homo sapiens) [1] = molecular target: KRAS-G12V (Homo sapiens) (UniProt P01116); assay: truncation mapping; assay not given
KRAS-G12V (Homo sapiens) [2] = molecular target: KRAS-G12V (Homo sapiens) (UniProt P01116); assay: GST-affinity pull-down (FIG. 2A, right panel)
KRAS-G12V (Homo sapiens) [3] = molecular target: KRAS-G12V (Homo sapiens) (UniProt P01116); assay: truncation studies, TR-FRET and GST pull-down competition

binding (KRAS-G12V (Homo sapiens) [1])	binding (KRAS-G12V (Homo sapiens) [2])	binding (KRAS-G12V (Homo sapiens) [3])	Binder
binds			MDYKDDEGTSEEKKIK [T4a 603-618]
binds	binds	binds	MDYKDDEG [RasKi: 8-mer 603-610]
binds			MDYKDDEGTSEEKKIKVILKVLDPS [T4 603-627]
